The values that follow come from the supplement of paper PMC10338343.

± gives the standard deviation. This is a selection; strong and weak results do not stand in their true shares. The uncertainty is large for many entries. The list shows a part of the results.

Experiment [1] has as its system MIWI (PIWIL1) piRISC loaded with L1MC piRNA (30 nt). As to the kind of experiment: pre-steady-state target cleavage rate (min^-1); higher = faster piRNA-guided slicing of the target. As to conditions: guide: L1MC piRNA 5'p-UAACUAAAUACUAUGCAAGCUGUAGGUCCU
In outline: (§1)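 Active affinity-purified piRISC (1 nM) loaded with one synthetic guide was mixed with a transcribed, DNA-blocked target RNA library (0.1 nM), with or without 500 nM GTSF1 partner protein, in HEPES–potassium acetate buffer at 33 °C for 0–8 or 0–960 min. Uncleaved targets were sequenced, normalised to depth and to weakly complementary targets, and pooled across three trials, with k3 capped at 0.0001 min^-1. The pre-steady-state cleavage rate was determined with a burst-and-steady-state fit.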

Experiment [2] concerns EfPiwi piRISC loaded with L1MC piRNA (26 nt). Briefly: pre-steady-state target cleavage rate (min^-1); guide: L1MC piRNA 5'p-UAACUAAAUACUAUGCAAGCUGUAGG; MIWI and MILI are mouse PIWI proteins and EfPiwi is from a freshwater sponge; tags in brackets are library labels; higher = faster piRNA-guided slicing of the target. In outline:
as §1

The mark [3] stands for this setting: auxiliary factor: 500 nM mouse GTSF1.
[4] abbreviates: auxiliary factor: none (no GTSF1).
The mark [5] stands for this setting: auxiliary factor: 500 nM Ephydatia muelleri Gtsf1.

For UCCUGGAACAGCUUGCAUAGUAUCUAGUUA, the “pre-steady-state target cleavage rate” value in experiment [1] (setting [3]) came to 0.508 ± 0.045; in experiment [1] (setting [4]) it was 0.0563 ± 0.011; in experiment [2] (setting [5]) it was 0.0068 ± 0.0027.

In the case of UCCUGGAUGUCGAUGCAUAGUAUUUAGCUA, the “pre-steady-state target cleavage rate” value in experiment [1] (setting [3]) came to 0.00198 ± 0.0053; in experiment [1] (setting [4]) it was 0.000579 ± 0.011; in experiment [2] (setting [5]), 0.000478 ± 0.0078.

On to UCCUGGAUCAGCUUGCAUUGUUUUUAGUUA, for which the “pre-steady-state target cleavage rate” value in experiment [1] (setting [3]) was 0.0337 ± 0.0067; in experiment [1] (setting [4]), 0.00759 ± 0.0022; in experiment [2] (setting [5]), 0.000797 ± 0.005.

UCCUGGAUCAGCUUCCUUAGUAUUUAGUUA: the “pre-steady-state target cleavage rate” value in experiment [1] (setting [4]) stood at 0.00161 ± 0.0026; in experiment [2] (setting [5]), 0.00181 ± 0.0022.

UCCUGCUACAGCUACCAUAGUAUUUAGAAA: the “pre-steady-state target cleavage rate” value in experiment [1] (setting [4]) was found to be 0.000353 ± 0.012; in experiment [2] (setting [5]), 0.00153 ± 0.0029.

With UCCUGGUACAGCAUGCAUAGUAUUUAGUAA, the “pre-steady-state target cleavage rate” value in experiment [1] (setting [3]) worked out at 0.377 ± 0.04; in experiment [1] (setting [4]), 0.00875 ± 0.0024; in experiment [2] (setting [5]), 0.00753 ± 0.0032.

On to UCCUGGAUGUCGAAGCAUCGUAUUUAGUUA, for which the “pre-steady-state target cleavage rate” value in experiment [1] (setting [3]) came out at 0.000946 ± 0.0069; in experiment [1] (setting [4]) it was 0.000606 ± 0.011; in experiment [2] (setting [5]), 0.000856 ± 0.0095.

Take UCCUGGAUGAGCUUGCAUACGUAUUUAGUUA: the “pre-steady-state target cleavage rate” value was determined as 0.000926 ± 0.014 in experiment [1] (setting [3]), 0.000243 ± 0.013 in experiment [1] (setting [4]) and 0.000822 ± 0.012 in experiment [2] (setting [5]).

Consider UCCUGGAUGUCCUAGCAUAGUAAUUAGUUA, for which the “pre-steady-state target cleavage rate” value in experiment [1] (setting [4]) was 0.00131 ± 0.0054; in experiment [2] (setting [5]) it was 0.00124 ± 0.0057.

For the sequence UCCUCCUACUGCUUGGAUAGUAUUUAGUUA, the “pre-steady-state target cleavage rate” value in experiment [1] (setting [3]) amounted to 1.21 ± 0.04; in experiment [1] (setting [4]) it was 0.0517 ± 0.0073; in experiment [2] (setting [5]), 0.064 ± 0.012.

For UCCUGGUACACCUUGCAUAGUAUUUAGUAA, the figures for the “pre-steady-state target cleavage rate” value in experiment [1] (setting [3]), in experiment [1] (setting [4]) and in experiment [2] (setting [5]) were 0.334 ± 0.078, 0.0104 ± 0.0044 and 0.00351 ± 0.0028, respectively.

As to “UCCUGGAUGUCCUUGCAUAGAUAAAUCAAA [g11:g19:cont:t1A]”, the “pre-steady-state target cleavage rate” value in experiment [1] (setting [4]) was found to be 0.000385 ± 0.022; in experiment [2] (setting [5]) it was 0.000169 ± 0.015.

On to UCCUGGAACAGGAAGCAUAGUAUUUAGUAA, for which the results for the “pre-steady-state target cleavage rate” value in experiment [1] (setting [4]) and in experiment [2] (setting [5]) were 0.00178 ± 0.005 and 0.00114 ± 0.0045, respectively.

With UCCUGGUACAGCUUCCAUUGUAUUUAGUUA, the “pre-steady-state target cleavage rate” value in experiment [1] (setting [4]) is 0.0017 ± 0.0039; in experiment [2] (setting [5]) it was 0.00136 ± 0.0058.

As for UCCUGGAUGUCGAAGCAUACUAUUAAGUUA, the “pre-steady-state target cleavage rate” value in experiment [1] (setting [4]) turned out to be 0.000334 ± 0.018; in experiment [2] (setting [5]), 0.000191 ± 0.016.

In the case of “UCCUGGAUGUCGUUGCAUAGUAUUUAGUUC [g2:g18:cont:t1C]”, the “pre-steady-state target cleavage rate” value in experiment [1] (setting [4]) was found to be 0.0024 ± 0.0034; in experiment [2] (setting [5]), 0.00372 ± 0.0037.

Consider UCCUGGAUGUCGUUGCAUAGUAAUUUAGUUA, for which the “pre-steady-state target cleavage rate” value in experiment [1] (setting [3]) was found to be 0.00149 ± 0.0077; in experiment [1] (setting [4]) it was 0.00218 ± 0.0051; in experiment [2] (setting [5]), 0.00164 ± 0.0072.

On to UCCUGGAUGUCGAUGCAUAGUCUUUAGUUA, for which the figures for the “pre-steady-state target cleavage rate” value in experiment [1] (setting [3]), in experiment [1] (setting [4]) and in experiment [2] (setting [5]) were 0.00279 ± 0.0041, 0.00206 ± 0.0049 and 0.00301 ± 0.0034, respectively.

Consider UCCUGCUACUGCUUGCAUAGUAUUUUCAAA, for which the “pre-steady-state target cleavage rate” value in experiment [1] (setting [4]) was 0.00201 ± 0.0034; in experiment [2] (setting [5]), 0.0014 ± 0.0031.

In the case of UCCUGGAUGUCGUUGCUUAGUAUUUAGUAA, the “pre-steady-state target cleavage rate” value is 0.000441 ± 0.032 in experiment [1] (setting [3]), 0.00104 ± 0.0069 in experiment [1] (setting [4]) and 0.00101 ± 0.0081 in experiment [2] (setting [5]).

With UCCUGCUACAGCAUGCAUAGUAUUUAGUAA, the “pre-steady-state target cleavage rate” value worked out at 0.655 ± 0.063 in experiment [1] (setting [3]), 0.00614 ± 0.0024 in experiment [1] (setting [4]) and 0.00673 ± 0.0029 in experiment [2] (setting [5]).

With UCCUGGAUGUCGUUGCUUAGUAUAUAGUUA, the “pre-steady-state target cleavage rate” value was 0.00019 ± 0.052 in experiment [1] (setting [3]), 0.00062 ± 0.0094 in experiment [1] (setting [4]) and 0.000288 ± 0.015 in experiment [2] (setting [5]).

Turning to UCCUGGAACAGCUUGGAUAGUAUUUUGUUA, the results for the “pre-steady-state target cleavage rate” value in experiment [1] (setting [3]), in experiment [1] (setting [4]) and in experiment [2] (auxiliary factor: none (no Gtsf1)) were 0.745 ± 0.075, 0.0289 ± 0.0047 and 0.000459 ± 0.025, respectively.

In the case of UCCUGGUACAGCUUGCAAAGUAUUUUCAAA, the “pre-steady-state target cleavage rate” value in experiment [1] (setting [4]) came to 0.00268 ± 0.0036; in experiment [2] (setting [5]), 0.00424 ± 0.0036.

For UCCUGGAACAGCUUGCAUAGAUUUAGUUA, the “pre-steady-state target cleavage rate” value in experiment [1] (setting [4]) stood at 0.00139 ± 0.0059; in experiment [2] (setting [5]), 0.00187 ± 0.0026.

On to UCCUGGAUCAGCUUGCAAUGUAUUUACAAA, for which the “pre-steady-state target cleavage rate” value stood at 0.00205 ± 0.0037 in experiment [1] (setting [4]) and 0.000304 ± 0.012 in experiment [2] (setting [5]).
